PubChem BioAssay AID1259425 | University of Nebraska Medical Center – 2018
Shown is one part, drawn at random, of about 14,000 reagents tested. Not all columns of the deposit are shown. No sequences are given here. Not given: the time to read-out.

- Screen: 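Find knockdowns that reproduce the gene expression pattern seen when KSR1 is lost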 (primary screen)
- Cells: HCT116 human colon cancer cells
- Reagents: siRNA pool against human genes, 50 nM siRNA
- Measurement: 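mRNA of six signature genes measured together by branched-DNA assay after 50 nM siRNA pool, blank removed, divided by geometric mean of two housekeeping genes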
- Scale: BNIP3L mRNA: higher = more BNIP3L transcript after knockdown

With MS4A14, how do the results read?
BNIP3L mRNA, set 1: 0.157

How did the screen score EIF2B2?
BNIP3L mRNA, set 1: 0.0868

How did the screen score LEP?
BNIP3L mRNA, set 1: 0.0568

With FMO3, what was measured?
BNIP3L mRNA, set 1: 0.114

How did the screen score NKAPD1?
BNIP3L mRNA, set 1: 0.0755

With ECHDC2, what was measured?
BNIP3L mRNA, set 1: 0.0725

How did the screen score OPN4?
BNIP3L mRNA, set 1: 0.0601

For SLC24A1, how do the results read?
BNIP3L mRNA, set 1: 0.087

What did the screen give for SLC46A2?
BNIP3L mRNA, set 1: 0.139

Which result is listed for APLP2?
BNIP3L mRNA, set 1: 0.0773

How did the screen score CFAP91?
BNIP3L mRNA, set 1: 0.155

What did the screen give for UQCRQ?
BNIP3L mRNA, set 1: 0.156

For CEACAM8, how do the results read?
BNIP3L mRNA, set 1: 0.046

What did the screen give for LMBR1L?
BNIP3L mRNA, set 1: 0.0884

How did the screen score COX7A2?
BNIP3L mRNA, set 1: 0.147

Quoted from above for reference:
SLC46A2 — BNIP3L mRNA, set 1 = 0.139
APLP2 — BNIP3L mRNA, set 1 = 0.0773
CFAP91 — BNIP3L mRNA, set 1 = 0.155

More records follow.
What is on record for GUCA2A?
BNIP3L mRNA, set 1: 0.248

What is on record for SLA?
BNIP3L mRNA, set 1: 0.094

For IFNA13, what was measured?
BNIP3L mRNA, set 1: 0.116

For SHLD2, what was measured?
BNIP3L mRNA, set 1: 0.172

What did the screen give for ARHGDIA?
BNIP3L mRNA, set 1: 0.0907

For UBE2M, what was measured?
BNIP3L mRNA, set 1: 0.0876

How did the screen score SLC5A6?
BNIP3L mRNA, set 1: 0.109

How did the screen score FURIN?
BNIP3L mRNA, set 1: 0.0787

With UGT2B15, what does the deposit list?
BNIP3L mRNA, set 1: 0.0835

For PRDX4, what was measured?
BNIP3L mRNA, set 1: 0.0791

Which result is listed for KDM5B?
BNIP3L mRNA, set 1: 0.0626

With REPS2, what does the deposit list?
BNIP3L mRNA, set 1: 0.09

For REXO4, what does the deposit list?
BNIP3L mRNA, set 1: 0.071

What is on record for CLMN?
BNIP3L mRNA, set 1: 0.173

For WDR45, what does the deposit list?
BNIP3L mRNA, set 1: 0.0454

For NEK9, what does the deposit list?
BNIP3L mRNA, set 1: 0.113

What is on record for TRIM66?
BNIP3L mRNA, set 1: 0.251

How did the screen score RRH?
BNIP3L mRNA, set 1: 0.0702

For ADGRB3, what was measured?
BNIP3L mRNA, set 1: 0.0736

What did the screen give for ATOSA?
BNIP3L mRNA, set 1: 0.461

How did the screen score HSPB3?
BNIP3L mRNA, set 1: 0.0968
